Laboratory results: patent publication US10350213B2 (AI Therapeutics, Inc., priority 2015, dated 2019)

Legend:
[1] = system: SUDHL-4 (Human Diffuse Large B Cell Lymphoma -GCB); assay: CellTiterGlo cell viability assay; assay type: cell-based; settings: 72 h, SU-DHL-4, three-day assay
[2] = system: WSU-DLCL2 (Human Diffuse Large B Cell Lymphoma -GCB); assay: CellTiterGlo cell viability assay; assay type: cell-based; settings: WSUDLCL2, 72 h, three-day assay

CCN(c1cc(-c2ccc(CN3CCOCC3)cc2)cc(C(=O)NCc2c(C)cc(C)[nH]c2=O)c1C)C1CCOCC1 [EPZ-6438] was tested, and the IC50 [1] was > 20000 nM and the IC50 [2] was > 10000 nM.
